Data from PubChem BioAssay AID1259415 (National Center for Advancing Translational Sciences (NCATS), 2018).
The whole screen tested about 410,000 compounds, of which about 18,000 (4.4%) were called active. The inconclusive results got no clear call from the source; some entries with a clear call stand among them for comparison. No stated cut-off is given here; in the data, active means activity change below about -60%; inconclusive means no clear call, values can overlap the other calls; inactive means above about -39%.
On the % scale 0 is the no-effect control and ±100 the full control effect.

Test: qHTS Assay for inhibitors of the human cytomegalovirus (HCMV)
Conditions: HFF cells, HCMV-luciferase reporter, 72 h; at 57.5 µM; stronger effect = lower value
Method in brief: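 Two-dose cell screen: HFF monolayers treated with compounds and infected with luciferase-expressing HCMV at 1 PFU/cell, 72 h at 37C, then lysed for luciferase measurement.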
In the case of Cc1noc(N)c1C(=O)Nc1ccc(F)cc1, the activity change, negative = inhibition was inactive: -26.6%.
For Cc1ccc(-c2nnc(SCC(=O)NCc3ccccc3)o2)cc1, the activity change, negative = inhibition was inactive: -1.03%.
In the case of NC(=O)COC(=O)c1ccc(-c2ccccc2)cc1, the activity change, negative = inhibition was active: -61.6%.
For O=S(=O)(c1ccc(NC(=S)Nc2ccc3c(c2)OCO3)cc1)N1CCOCC1, the activity change, negative = inhibition was inconclusive: -49.2%.
With CCCn1c(SCC(=O)NC2CCCCC2)nnc1-c1cccnc1 the activity change, negative = inhibition was active: -65.4%.
For O=C1c2cccc3cccc(c23)C(=O)N1c1cccc(O)c1, the activity change, negative = inhibition was inconclusive: -42.2%.
For Cc1cc(C)nc(SCc2nnc(SCC(=O)N3CCCc4ccccc43)n2C)n1, the activity change, negative = inhibition was inconclusive: -50.3%.
In the case of C=C(C)CSc1cc(C)nc2c(-c3ccccc3)c(C)nn12, the activity change, negative = inhibition was active: -84.8%.
For CC(=O)c1ccc2noc(-c3ccc(Cl)cc3)c2c1, the activity change, negative = inhibition was active: -61.8%.
In the case of COc1ccccc1NC(=O)N1CCN(c2nnc(C)c3c(C)n(-c4ccccc4)nc23)CC1, the activity change, negative = inhibition was inconclusive: -51%.
For Nc1c(-c2nc(-c3ccccc3Cl)no2)nnn1-c1ccccc1C(F)(F)F, the activity change, negative = inhibition was inactive: 20.1%.
For CCOC(=O)C1=C(c2ccccc2)Nc2ncnn2C1c1cccc(O)c1 (stereo not drawn), the activity change, negative = inhibition was inactive: -12.1%.
With Cc1ccc(C)c(N2CCN(S(=O)(=O)c3cc(C(=O)Nc4ccccc4C(F)(F)F)ccc3F)CC2)c1 the activity change, negative = inhibition was inactive: -34.6%.
In the case of CCOc1ccc2c(c1)C(=O)C(=O)N2CC1COc2ccccc2O1 (stereo not drawn), the activity change, negative = inhibition was active: -64.5%.
For Cc1cc(N2CCN(C/C=C/c3ccccc3)CC2)n2ncnc2n1, the activity change, negative = inhibition was active: -91.3%.
For CN1CCN(C(=S)c2cn(CCOc3ccccc3)c3ccccc23)CC1, the activity change, negative = inhibition was inconclusive: -56.5%.
In the case of COc1nc2ccccc2nc1N1CCN(Cc2ccc3c(c2)OCO3)CC1, the activity change, negative = inhibition was inconclusive: -41.6%.
With Nc1cc2c(cc1Cl)-c1ccc([N+](=O)[O-])cc1C2=NO the activity change, negative = inhibition was inconclusive: -45.3%.
For CCCC(=O)N1c2ccccc2-c2nnc(SC)nc2OC1c1sccc1C (stereo not drawn), the activity change, negative = inhibition was inactive: 20.1%.
For O=C(C1=C(c2ccccc2)C(=O)c2ccccc2C1=O)c1ccccc1, the activity change, negative = inhibition was active: -98.7%.
In the case of c1ccc(-c2nnc(-c3ccccc3)c(-c3c[nH]c4ccccc34)n2)cc1, the activity change, negative = inhibition was inactive: 10.2%.
With CN(C)c1ccc(/C=N/n2c(-c3cccnc3)n[nH]c2=S)cc1 the activity change, negative = inhibition was inconclusive: -51.3%.
In the case of Cc1cc(N2CCN(C)CC2)nc2ccc(NC(=S)N3CCN(c4cccc(Cl)c4)CC3)cc12, the activity change, negative = inhibition was inconclusive: 0%.
In the case of COC(=O)c1ccc(COc2ccc3ccc(=O)oc3c2)o1, the activity change, negative = inhibition was inconclusive: -43.7%.
With CCC1CCCCN1C(=O)c1cc(COc2ccc(-n3cncn3)cc2)on1 (stereo not drawn) the activity change, negative = inhibition was active: -60.6%.
With Cc1cc(Br)ccc1SCC(=O)OCC(O)=C(C#N)c1nc2ccccc2[nH]1 the activity change, negative = inhibition was inactive: -9.25%.
For CCOc1ccc(OCC)c(NC(=O)CN(C)S(=O)(=O)c2ccc3[nH]c(=O)oc3c2)c1, the activity change, negative = inhibition was inactive: -23.8%.
In the case of O=C(CCc1ccc(S(=O)(=O)N2CCOCC2)cc1)N1CCc2ccccc2C1, the activity change, negative = inhibition was inconclusive: -44.6%.
In the case of Cc1ccc(NC(=O)c2nc(S(=O)(=O)Cc3ccc(F)cc3)ncc2Cl)cc1C, the activity change, negative = inhibition was active: -98.4%.
In the case of O=C(NC(=S)Nc1ccccc1)c1cc([N+](=O)[O-])ccc1N1CCOCC1, the activity change, negative = inhibition was inconclusive: -44%.
With Cc1ccc2[nH]c(CSc3ccccc3)cc(=O)c2c1 the activity change, negative = inhibition was inconclusive: -50.5%.
In the case of Cc1ccc(C(=O)Nc2ccc(N3CCN(C(=O)c4cccs4)CC3)cc2)c(Cl)c1, the activity change, negative = inhibition was inconclusive: -54.8%.
With Cc1ccccc1OCC(=O)N1CCN(C(=O)COc2ccccc2C)CC1 the activity change, negative = inhibition was inconclusive: -48.8%.
For O=C(c1cnn2c(-c3ccccc3)cc(-c3ccccc3)nc12)N1CCN(Cc2ccccc2)CC1, the activity change, negative = inhibition was inconclusive: -44.6%.
With Clc1cccc(Cl)c1CSc1nnc(CN2CCOCC2)n1-c1ccccc1 the activity change, negative = inhibition was inconclusive: -50.6%.
For O=C(Nc1ccc2c(c1)OCO2)c1ccncc1, the activity change, negative = inhibition was inactive: 37.4%.
In the case of O=C1C=C(c2cccs2)C[C@H](c2ccccc2)[C@H]1n1nnc([N+](=O)[O-])n1, the activity change, negative = inhibition was active: -80.2%.
With CCCCC(=O)NC(=S)Nc1nnn(CCC)n1 the activity change, negative = inhibition was active: -98.2%.
With NC(=O)c1ccc[n+](CC(=O)c2ccc(NC(=O)c3ccccc3)cc2)c1 the activity change, negative = inhibition was inactive: 0.104%.
With O=C1CC(c2ccccc2)Sc2nc(-c3ccccc3)c(-c3ccccc3)n21 (stereo not drawn) the activity change, negative = inhibition was inconclusive: -40.5%.
For CCN(CC)c1ccc(N=Nc2nn(C)c(C)c2[N+](=O)[O-])cc1, the activity change, negative = inhibition was inconclusive: -55.5%.
In the case of CN(C)c1nc(SCC#N)nc(N(C)C)n1, the activity change, negative = inhibition was inconclusive: -41.4%.
With Cc1ccc(C2(C(F)(F)F)N=C3Sc4cc(C)ccc4N3C(=O)N2)cc1 (stereo not drawn) the activity change, negative = inhibition was inconclusive: -51.5%.
In the case of CC(=O)c1cccc(N=Nc2c(-c3ccccc3)[nH]n(-c3ccccc3)c2=O)c1, the activity change, negative = inhibition was inconclusive: -55.8%.
In the case of CC(C)CC(=O)N(Cc1ccc(F)cc1)C1CCS(=O)(=O)C1 (stereo not drawn), the activity change, negative = inhibition was inactive: -29%.
With COc1ccc(Cn2c(C3CC3)nc3ccc(NC(=O)c4ccco4)cc3c2=O)cc1 the activity change, negative = inhibition was inactive: 108%.
For Cc1cc(C)c2cc(C#N)c(NCCCNC(=O)c3cccnc3)nc2c1, the activity change, negative = inhibition was inactive: 4.58%.
With CCOc1ccccc1C1CC(=O)Nc2cc3c(cc21)OCO3 (stereo not drawn) the activity change, negative = inhibition was inconclusive: -54.7%.
For COc1ccc(C(=O)OC2C(OC)OCC(O)C2O)cc1 (stereo not drawn), the activity change, negative = inhibition was inconclusive: -41.8%.
In the case of S=C(NCCc1ccccn1)Nc1cccc(Cl)c1, the activity change, negative = inhibition was inconclusive: -43.6%.
With COc1cccc(C(C)(O)c2nc(/C=C/c3ccccc3)cs2)c1 (stereo not drawn) the activity change, negative = inhibition was inconclusive: -48.3%.
In the case of CCC1CCc2c(sc3ncnc(N4CCOCC4)c23)C1 (stereo not drawn), the activity change, negative = inhibition was inconclusive: -43.1%.
In the case of Cc1ccc(-c2nc3c(c(=O)[nH]c(=O)n3CC(C)C)n2CC(C)C)cc1[N+](=O)[O-], the activity change, negative = inhibition was active: -62.4%.
In the case of CC1CCCCN1C(=O)c1ccc(C(=O)Nc2ccc(F)cc2)cc1 (stereo not drawn), the activity change, negative = inhibition was inconclusive: -53.5%.
With COc1cc(C2C3=C(CC(C)(C)CC3=O)N(C)C3=C2C(=O)CC(C)(C)C3)cc(Br)c1O the activity change, negative = inhibition was inconclusive: -56.3%.
For O=C(NC1CCCC1)c1ccccc1OCc1ccccc1, the activity change, negative = inhibition was inconclusive: -59.4%.
With Cc1cccc(C)c1NC(=S)N1CCCN(C)CC1 the activity change, negative = inhibition was inconclusive: -47.2%.
For O=C(CSc1nnc(COc2ccc(F)cc2)o1)N1c2ccccc2CCc2ccccc21, the activity change, negative = inhibition was inactive: -29.7%.
With COc1ccc(/C=C/C(=O)Nc2cccc(F)c2)cc1S(=O)(=O)N1CCOCC1 the activity change, negative = inhibition was inconclusive: -47.8%.
In the case of Cc1ccc(N(Cc2ccccc2)C(=O)c2cc(S(=O)(=O)N3CCOCC3)ccc2C)cc1, the activity change, negative = inhibition was inconclusive: -48.7%.
For CCOc1ccc(CN2C(=O)C(=O)c3cccc(C)c32)cc1OC, the activity change, negative = inhibition was inconclusive: -59.7%.
In the case of C=CCn1c(CCn2c3ccccc3c3ccccc32)n[nH]c1=S, the activity change, negative = inhibition was inconclusive: -56.7%.
For O=C1c2ccsc2SCCN1Cc1ccc(F)cc1, the activity change, negative = inhibition was inconclusive: -40.8%.
With COc1cccc(CNS(=O)(=O)c2csc(C(N)=O)c2)c1 the activity change, negative = inhibition was inactive: -30.1%.
In the case of Cc1ccc(Nc2nc(N)nc(CSc3nc(C)cc(C)n3)n2)cc1, the activity change, negative = inhibition was inconclusive: -49.5%.
With N#C/C(=N\Nc1cc(Cl)cc(Cl)c1)c1nnc2n1CCCCC2 the activity change, negative = inhibition was inactive: -9.41%.
For Cc1cccc(C(=O)N2c3ncnn3C3(CCCCC3)[C@@H]3CCCC[C@@H]32)c1, the activity change, negative = inhibition was inactive: -7.34%.
In the case of CSc1ccc(CNC(=O)c2sc3ncnc(N(C)C4CCCCC4)c3c2C)cc1, the activity change, negative = inhibition was inactive: -18.6%.
In the case of CCCSc1ncc(Cl)c(C(=O)Nc2ccc(S(=O)(=O)N3CC(C)OC(C)C3)cc2)n1 (stereo not drawn), the activity change, negative = inhibition was active: -67.5%.
With COc1cccc(NC(=O)CN(C)C(=O)c2ccc(Cl)c(S(=O)(=O)N3CCCCCC3)c2)c1 the activity change, negative = inhibition was inconclusive: -59%.
In the case of CC(=O)Oc1ccccc1N(C(C)=O)S(=O)(=O)c1ccc(C)cc1, the activity change, negative = inhibition was inconclusive: -49.7%.
With CCOCCCn1c(SCC(=O)NCc2ccccc2)nc2c(sc3ccccc32)c1=O the activity change, negative = inhibition was inconclusive: -50.1%.
With COCCn1c(SCC(=O)NC(=O)NCc2ccccc2)nc2ccccc2c1=O the activity change, negative = inhibition was inconclusive: -40.6%.
With CCN(CC)C(=O)c1cccc(-c2csc(C(O)(c3ccccc3)C(F)(F)F)n2)c1 (stereo not drawn) the activity change, negative = inhibition was inconclusive: -40.3%.
For NS(=O)(=O)c1ccc(CCNC(=O)CSc2ccc(Cl)cc2Cl)cc1, the activity change, negative = inhibition was inconclusive: -51.8%.
For Nc1ncnc(Nc2ccccn2)c1[N+](=O)[O-], the activity change, negative = inhibition was inactive: -27.1%.
In the case of O=C(Nc1nc2ccccc2s1)c1ccc(OCC2CCCO2)cc1 (stereo not drawn), the activity change, negative = inhibition was active: -88.2%.
For COc1ccc(C)cc1-n1c(SCC(=O)N2CCOCC2)nc2ccccc2c1=O, the activity change, negative = inhibition was inconclusive: -44.1%.
For COc1ccc(F)cc1CN1CCN(C(=O)CCC(=O)Nc2nnc(C3CCCCC3)s2)CC1, the activity change, negative = inhibition was inconclusive: -57.4%.
For COc1ccc(NC(=O)Cc2csc(NC(=O)Nc3ccccc3OC)n2)cc1, the activity change, negative = inhibition was inactive: -22%.
In the case of N#Cc1cccc(NC(=O)CNc2cccc(S(=O)(=O)N3CCCCC3)c2)c1, the activity change, negative = inhibition was inconclusive: -51.9%.
In the case of Nc1c(C(=O)NCc2ccco2)c2nc3ccccc3nc2n1CCc1ccccc1F, the activity change, negative = inhibition was inconclusive: -44.8%.
In the case of COc1ccc(OC)c(C(C)NC(=S)NC2CCCCC2)c1 (stereo not drawn), the activity change, negative = inhibition was inconclusive: -56.6%.
With O=C(COc1ccc(C(=O)NCC2CCCO2)cc1)Nc1cccc(C(F)(F)F)c1 (stereo not drawn) the activity change, negative = inhibition was inconclusive: -48.5%.
In the case of COc1ccc2c(c1)C(=NO)c1cc(OC)ccc1-2, the activity change, negative = inhibition was inconclusive: -58.4%.
For COc1cccc(OC)c1OCCN1CCC(C(=O)NC(c2ccc3c(c2)OCO3)c2ccccn2)CC1 (stereo not drawn), the activity change, negative = inhibition was active: -60.6%.
For O=C(CCCN1C(=O)/C(=C/c2ccccc2Cl)SC1=S)Nc1ccccn1, the activity change, negative = inhibition was active: -97%.
In the case of O=S(=O)(Cc1ccccc1Cl)NCCc1ccccc1, the activity change, negative = inhibition was inconclusive: -43.7%.
